Primary screen of a compound library

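Whole-cell assay for inhibitors of Mycobacterium tuberculosis growth, labelled Cornell in the record; the read-out is not stated. The concentration is filed as 10 mM, unlikely as a test dose, so the dose is not known. The record gives no direction; compounds strong in two other growth screens of this library score well above the rest, so higher reads as stronger inhibition. Size under these conditions: about 53,000 compounds, about 900 of them at 50% or above in at least one test.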

Each number is a percent effect as filed. The record does not define 0% and 100%; most values in the screen are far below 50% and negative numbers occur (in some assays of this library far below -100). The compounds are a random part of those screened.

| # | Compound | Percent Effect |
|---|---|---|
| 1 | `CC1CCCN(C(=O)c2cn(-c3ccc(C(F)(F)F)cn3)nn2)C1` (centres unmarked) | 21.55 |
| 2 | `Cc1oc(-c2ccsc2)nc1CC(=O)NCC(C)(C)CN(C)C` | 3.653 |
| 3 | `Cc1noc2ncnc(NC(CC(C)(C)C)c3cccnc3)c12` (centres unmarked) | -3.848 |
| 4 | `CCN(CC)c1ncc(Cl)c(C(=O)NC2CCc3nccn3C2)n1` (centres unmarked) | 15.14 |
| 5 | `CCOc1ccc(C#N)cc1NCC(=O)NC(=O)NC` | -32.27 |
| 6 | `O=c1cc(CN(CCO)C2CC2)nc2ccccn12` | -80.34 |
| 7 | `OCCN1CCC(CNCc2ccc(Br)cc2)CC1` | 17.33 |
| 8 | `CS(=O)(=O)c1cc(Cl)cnc1C1CCN(C(=O)C2CCCO2)CC1` (centres unmarked) | 9.752 |
| 9 | `Cc1cccc(C(=O)N2CCCN(CCc3scnc3C)CC2)c1` | -0.5859 |
| 10 | `COc1ccnc(N2CCCN(Cc3ncc(C(C)C)o3)CC2)n1` | 4.131 |
| 11 | `[H][C@@]12CN(c3ccccn3)C[C@]1([H])N(Cc1ccccc1OC)C(=O)O2` | -10.2 |
| 12 | `COc1ccc(CN(C)C(=O)CCc2c(C)nc(C)[nH]c2=O)cc1OC` | 15.26 |
| 13 | `O=C(O)C(F)(F)F.O=C(O)C(F)(F)F.[H][C@@]12C[C@@H](OCc3ccccn3)CN1CCN(c1ncc(C)cn1)C2` | 40.61 |
| 14 | `COc1cccc2c1OCC(Cc1ccc(N)nc1C)C2` (centres unmarked) | 28.19 |
| 15 | `Cc1ccc(Br)c(S(=O)(=O)NCc2ccnn2C)c1` | 3.189 |
| 16 | `COC1CCN(c2ccc(F)cc2CN(C)C(=O)c2cc[nH]n2)CC1` | -8.74 |
| 17 | `COc1ncnc2c1CCN(C(=O)NCc1cccc(F)c1)CC2` | 32.43 |
| 18 | `O=C(O)C(F)(F)F.O=C(O)C(F)(F)F.[H][C@@]12OCCN(CC3CC3)[C@@]1([H])CC[C@H]2OCCCn1cccn1` | 33.56 |
| 19 | `CCc1nsc(N2CCc3sccc3C2)n1` | 26.87 |
| 20 | `[H][C@@]12CCN(C(=O)C3CCOCC3)C[C@@]1([H])O[C@H](c1ccncn1)C2` | 12.6 |
| 21 | `CCCc1nnc(NCCn2nc(C)c(Cl)c2C)o1` | -37.05 |
| 22 | `Fc1cccc(N2CCCC3(CN(Cc4ccccn4)CCO3)C2)c1.O=C(O)C(F)(F)F.O=C(O)C(F)(F)F.O=C(O)C(F)(F)F` (centres unmarked) | 43.65 |
| 23 | `O=S(=O)(NCCn1cc(C2CCOC2)nn1)c1ccc(Cl)cc1` (centres unmarked) | -9.35 |
| 24 | `CCOCCN1CCN(CC(=O)NC2(C#N)CCCC2)CC1CC` (centres unmarked) | 9.867 |
| 25 | `O=C(CN1CCS(=O)(=O)CC1)NCc1cccc(Br)c1` | -7.066 |
| 26 | `CCc1nnc(Nc2cc(C)nc(C3CN(C(C)=O)CCO3)c2)s1` (centres unmarked) | 6.21 |
| 27 | `O=C(CNc1cc(-n2cnnn2)ccc1F)Nc1cc(F)ccc1F` | 3.475 |
| 28 | `CCCc1nc(CN2CCCC2Cn2cncn2)no1` (centres unmarked) | -5.851 |
| 29 | `O=C(NCCNC(=O)c1scnc1Cl)c1ccccc1Cl` | 2.223 |
| 30 | `Cc1ccc(N2CCCN(C(=O)c3cn(C)c4ccccc34)CC2)nn1` | 2.501 |
| 31 | `c1ccc(-c2cc(CC3(NCc4ncc[nH]4)COC3)no2)cc1` | 5.453 |
| 32 | `COc1cc(NC(=O)c2cc(C)sc2C)c(C(=O)N(C)C)cc1OC` | 12.81 |
| 33 | `CCc1nc(C(=O)N2CCN(C)CC2)nn1-c1ccccc1Cl` | -21.83 |
| 34 | `COCc1nn(C(C)C)c2c1CCN(Cc1nccs1)C2.O=C(O)C(F)(F)F` | -36.07 |
| 35 | `O=C1CSCN1Cc1nc(-c2ccc(N3CCCCC3)cc2)no1` | -14.12 |
| 36 | `N[C@H]1CN(C(=O)Cc2ccc(Cl)c(Cl)c2)C[C@@H]1C1CC1` | 30.52 |
| 37 | `CCOCC(=O)NCC1Cn2nnc(-c3cccc(F)c3)c2CO1` (centres unmarked) | 3.157 |
| 38 | `O=C(Cc1ccsc1)N1CCc2ncc(Cn3cccn3)n2CC1` | -21.2 |
| 39 | `CCn1cc(S(=O)(=O)Nc2nc3c(s2)CC(C)CC3)cn1` (centres unmarked) | -25.24 |
| 40 | `COC(=O)Cc1cn2cc(C(F)(F)F)ccc2n1` | -22.96 |
| 41 | `CCOC(=O)C1CCN(C(=O)CN2CCCC2c2cc(C)no2)CC1` (centres unmarked) | 19.59 |
| 42 | `COCCN1CCC(CN(CC2CCCO2)C(=O)Cc2cccs2)CC1` (centres unmarked) | -21.46 |
| 43 | `Cc1cc(=O)n2nc(Oc3ccc(Cl)c(C)c3)sc2n1` | 16.21 |
| 44 | `CSCC[C@@H](CO)n1ccnc1-c1nccn1C` | 15.31 |
| 45 | `CC/C=C(/C)C(=O)NS(=O)(=O)c1ccc(C#N)c(C(F)(F)F)c1` | 38.08 |
| 46 | `CC(C)OCc1ccc(CNC(=O)CC(F)(F)F)cc1` | 20.72 |
| 47 | `O=C(O)C(F)(F)F.[H][C@@]12C[C@H](C(=O)N3CCCCO3)CN(C(=O)c3ccccn3)[C@]1([H])CCO2` | 14.43 |
| 48 | `O=C(CN1CCOc2ccccc2C1)NCc1cc2n(n1)CCNC2` | -27.7 |
| 49 | `CCN(Cc1ccc2c(c1)OCCO2)C(=O)NCc1csc(C)n1` | -31.32 |
| 50 | `Cc1cccnc1NC(=O)C1(n2cnnn2)CCCCC1` | 19.28 |
| 51 | `Cc1cc(N2CCC(c3ncc[nH]3)CC2)nc(N)n1` | 8.938 |
| 52 | `Cc1ccccc1CSc1ncc(Br)c(C(=O)O)n1` | 12.49 |
| 53 | `[H][C@@]12COC[C@H](c3nc(C)no3)[C@]1([H])CN(C(=O)Cc1cccs1)C2` | -0.4318 |
| 54 | `Cc1cnn(CC2CCCN2C(=O)c2cn(-c3ccccc3)nc2C)c1` (centres unmarked) | 6.697 |
| 55 | `[H][C@@]12CC[C@H](Oc3ccccc3Cl)[C@]1([H])CN(C(=O)COCCOC)C2` | -16.66 |
| 56 | `COCCSCC(=O)NCc1ccnc(N(C)C)c1` | 5.836 |
| 57 | `Cc1nc(CN2CCOC(c3nc(C(C)C)n[nH]3)C2)oc1C` (centres unmarked) | 11.38 |
| 58 | `Cc1ccc(CNC(=O)CN2CCOC(Cn3cncn3)C2)s1` (centres unmarked) | 7.267 |
| 59 | `O=C(OCc1cc(=O)n2cc(Br)ccc2n1)c1ccc2c(c1)OCO2` | 21.64 |
| 60 | `Cc1nn(C)c(N(C)C)c1CNCc1ccc(Cn2cncn2)cc1` | -17.67 |
| 61 | `CCOCc1nc2c(c(NCCNC(C)=O)n1)CCN(C(C)=O)CC2` | -31.33 |
| 62 | `Cc1cnc(C)c(N2CCCC(CC3CC3)(C(=O)O)C2)n1` (centres unmarked) | 17.99 |
| 63 | `Cc1ccc(C(=O)O)cc1NC(=O)C1CC=CC1` | -27.19 |
| 64 | `CCN(CC)c1nc(C)cc(C(=O)Nc2cnn(CC)c2)n1` | 28.55 |
| 65 | `Cc1ccccc1C(=O)Nc1ccc(OC2CCN(C)CC2)cc1` | 13.81 |
| 66 | `OCc1csc(N2CCCC(COc3cccc(F)c3)C2)n1` (centres unmarked) | 12.42 |
| 67 | `Cc1nc(O)c2nnn(C[C@H]3CCCN3C(=O)C3CCCC3)c2n1` | 10.15 |
| 68 | `CS(=O)(=O)NCC(=O)N[C@H]1CN(c2cnccn2)C[C@@H]1C1CC1` | -22.96 |
| 69 | `COc1ccccc1CNC(C)c1ccc(-n2ccnc2)cc1.Cl` (centres unmarked) | -8.782 |
| 70 | `Cn1cnc2c1C(COCC1CC1)CN(Cc1ccc3c(c1)OCO3)C2.O=C(O)C(F)(F)F.O=C(O)C(F)(F)F` (centres unmarked) | 6.727 |

For reference, 4 entries once more:

- O=C(CN1CCS(=O)(=O)CC1)NCc1cccc(Br)c1 : -7.066%
- Cc1nn(C)c(N(C)C)c1CNCc1ccc(Cn2cncn2)cc1 : -17.67%
- Cc1cc(N2CCC(c3ncc[nH]3)CC2)nc(N)n1 : 8.938%
- COc1ccc(CN(C)C(=O)CCc2c(C)nc(C)[nH]c2=O)cc1OC : 15.26%

The values are deposited in ChEMBL (CHEMBL3988442, “University of Dundee, Small-Polar-MMV Screening Library” (2021)).